Experimental data from the supplement of paper PMC10849652.
The list shows a part of the results.

Chains of the proteins cited; added tags and fusions are not shown. Lines headed by an entry give the natural chain unless they say otherwise; changes in a name come on top.
UniProt Q9UHC9: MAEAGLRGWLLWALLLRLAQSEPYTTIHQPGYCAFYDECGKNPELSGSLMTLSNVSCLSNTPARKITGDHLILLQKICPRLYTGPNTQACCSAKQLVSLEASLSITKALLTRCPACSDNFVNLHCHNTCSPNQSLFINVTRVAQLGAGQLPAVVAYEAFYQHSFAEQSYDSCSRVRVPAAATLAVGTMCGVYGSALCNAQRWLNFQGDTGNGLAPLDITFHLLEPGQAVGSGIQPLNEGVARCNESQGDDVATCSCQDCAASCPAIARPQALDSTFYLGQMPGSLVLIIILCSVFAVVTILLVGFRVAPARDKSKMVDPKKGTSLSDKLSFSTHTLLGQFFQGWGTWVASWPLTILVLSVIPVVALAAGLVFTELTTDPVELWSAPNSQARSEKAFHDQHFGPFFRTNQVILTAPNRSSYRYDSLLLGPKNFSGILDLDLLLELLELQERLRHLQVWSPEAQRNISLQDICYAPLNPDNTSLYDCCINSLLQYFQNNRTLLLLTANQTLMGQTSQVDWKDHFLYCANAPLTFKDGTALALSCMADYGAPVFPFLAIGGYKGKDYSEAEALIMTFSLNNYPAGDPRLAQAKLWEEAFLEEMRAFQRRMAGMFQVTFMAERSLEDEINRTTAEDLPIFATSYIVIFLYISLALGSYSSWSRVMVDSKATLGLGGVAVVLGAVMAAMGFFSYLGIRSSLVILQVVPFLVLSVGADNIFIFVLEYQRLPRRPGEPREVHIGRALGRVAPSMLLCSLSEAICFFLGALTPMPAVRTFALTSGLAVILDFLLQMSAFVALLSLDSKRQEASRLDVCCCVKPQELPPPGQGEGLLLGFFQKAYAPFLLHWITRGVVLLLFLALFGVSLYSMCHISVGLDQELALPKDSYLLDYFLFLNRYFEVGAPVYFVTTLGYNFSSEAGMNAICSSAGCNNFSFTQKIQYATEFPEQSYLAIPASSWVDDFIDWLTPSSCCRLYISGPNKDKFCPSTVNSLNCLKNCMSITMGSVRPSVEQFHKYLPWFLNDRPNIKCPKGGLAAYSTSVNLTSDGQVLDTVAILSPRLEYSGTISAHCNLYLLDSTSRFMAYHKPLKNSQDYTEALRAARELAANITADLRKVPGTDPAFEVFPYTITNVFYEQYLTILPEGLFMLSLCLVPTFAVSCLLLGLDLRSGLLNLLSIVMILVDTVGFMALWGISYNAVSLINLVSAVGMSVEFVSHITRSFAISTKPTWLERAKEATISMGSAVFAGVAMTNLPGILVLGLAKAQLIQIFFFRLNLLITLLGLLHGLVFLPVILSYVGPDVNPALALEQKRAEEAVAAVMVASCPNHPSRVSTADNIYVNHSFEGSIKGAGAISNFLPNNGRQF
UniProt O60361, whole entry, looked up: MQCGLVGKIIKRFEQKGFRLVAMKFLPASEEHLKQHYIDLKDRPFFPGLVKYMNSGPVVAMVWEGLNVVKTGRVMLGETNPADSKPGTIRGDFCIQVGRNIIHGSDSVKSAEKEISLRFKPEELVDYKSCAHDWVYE
UniProt Q9BYG3: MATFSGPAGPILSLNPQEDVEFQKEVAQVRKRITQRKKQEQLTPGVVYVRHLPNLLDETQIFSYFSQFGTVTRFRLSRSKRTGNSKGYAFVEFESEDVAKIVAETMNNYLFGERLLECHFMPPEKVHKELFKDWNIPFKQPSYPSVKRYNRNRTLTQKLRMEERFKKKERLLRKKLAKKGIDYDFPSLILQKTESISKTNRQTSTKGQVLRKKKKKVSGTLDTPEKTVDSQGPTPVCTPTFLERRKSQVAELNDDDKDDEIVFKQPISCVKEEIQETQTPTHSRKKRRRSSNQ
UniProt Q9NSY0: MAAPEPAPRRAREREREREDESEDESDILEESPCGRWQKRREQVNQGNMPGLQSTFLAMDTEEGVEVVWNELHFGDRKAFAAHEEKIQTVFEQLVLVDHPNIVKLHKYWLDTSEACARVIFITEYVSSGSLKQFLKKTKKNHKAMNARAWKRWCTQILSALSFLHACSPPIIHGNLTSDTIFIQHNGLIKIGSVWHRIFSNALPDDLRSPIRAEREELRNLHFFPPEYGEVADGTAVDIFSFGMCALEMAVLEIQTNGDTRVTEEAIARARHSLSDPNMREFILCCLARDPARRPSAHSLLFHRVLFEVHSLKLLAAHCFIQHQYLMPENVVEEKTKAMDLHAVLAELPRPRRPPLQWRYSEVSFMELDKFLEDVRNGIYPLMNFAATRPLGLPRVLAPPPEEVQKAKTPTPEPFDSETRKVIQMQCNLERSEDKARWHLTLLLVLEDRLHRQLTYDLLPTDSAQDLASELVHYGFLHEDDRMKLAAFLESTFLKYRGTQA
UniProt Q7RTR2: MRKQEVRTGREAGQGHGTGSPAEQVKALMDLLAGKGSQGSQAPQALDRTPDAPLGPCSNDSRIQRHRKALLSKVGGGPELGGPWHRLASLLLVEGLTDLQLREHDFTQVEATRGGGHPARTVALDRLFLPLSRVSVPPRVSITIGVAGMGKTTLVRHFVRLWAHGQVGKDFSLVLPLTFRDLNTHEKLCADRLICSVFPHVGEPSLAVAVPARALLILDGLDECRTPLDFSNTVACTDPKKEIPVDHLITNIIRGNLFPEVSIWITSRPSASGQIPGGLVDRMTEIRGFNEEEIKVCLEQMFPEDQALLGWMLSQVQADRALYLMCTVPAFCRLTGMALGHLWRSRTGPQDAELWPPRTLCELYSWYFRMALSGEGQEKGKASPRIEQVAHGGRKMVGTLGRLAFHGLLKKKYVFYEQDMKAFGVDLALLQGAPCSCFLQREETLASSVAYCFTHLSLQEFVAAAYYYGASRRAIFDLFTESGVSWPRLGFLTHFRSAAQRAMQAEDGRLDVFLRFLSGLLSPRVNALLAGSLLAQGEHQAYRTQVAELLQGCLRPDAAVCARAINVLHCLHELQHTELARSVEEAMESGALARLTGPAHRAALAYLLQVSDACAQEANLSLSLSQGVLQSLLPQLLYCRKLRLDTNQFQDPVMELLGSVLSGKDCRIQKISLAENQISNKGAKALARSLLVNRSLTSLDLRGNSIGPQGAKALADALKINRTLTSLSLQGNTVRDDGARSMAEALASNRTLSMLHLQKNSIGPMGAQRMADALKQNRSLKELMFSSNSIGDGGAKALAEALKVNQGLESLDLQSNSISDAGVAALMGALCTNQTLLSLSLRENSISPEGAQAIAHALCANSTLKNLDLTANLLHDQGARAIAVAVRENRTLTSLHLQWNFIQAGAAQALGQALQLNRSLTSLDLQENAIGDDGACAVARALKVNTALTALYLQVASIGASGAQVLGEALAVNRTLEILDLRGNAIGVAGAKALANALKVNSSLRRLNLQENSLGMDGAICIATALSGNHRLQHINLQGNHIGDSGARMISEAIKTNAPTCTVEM
UniProt Q9UGY1: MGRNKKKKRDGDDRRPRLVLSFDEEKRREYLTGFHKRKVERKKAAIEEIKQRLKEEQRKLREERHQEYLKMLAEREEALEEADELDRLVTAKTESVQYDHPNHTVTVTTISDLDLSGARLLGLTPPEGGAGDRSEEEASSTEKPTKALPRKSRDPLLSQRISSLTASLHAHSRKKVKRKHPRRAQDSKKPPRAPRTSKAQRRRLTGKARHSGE
UniProt Q9HAN9, whole entry, looked up: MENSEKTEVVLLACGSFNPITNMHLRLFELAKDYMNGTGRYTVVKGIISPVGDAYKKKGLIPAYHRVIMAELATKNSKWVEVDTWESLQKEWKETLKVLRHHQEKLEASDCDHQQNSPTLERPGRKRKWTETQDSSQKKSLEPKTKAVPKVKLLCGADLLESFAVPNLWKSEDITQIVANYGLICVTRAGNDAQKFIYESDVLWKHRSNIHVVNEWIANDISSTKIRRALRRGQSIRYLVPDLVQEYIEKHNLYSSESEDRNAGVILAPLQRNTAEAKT
UniProt O15118: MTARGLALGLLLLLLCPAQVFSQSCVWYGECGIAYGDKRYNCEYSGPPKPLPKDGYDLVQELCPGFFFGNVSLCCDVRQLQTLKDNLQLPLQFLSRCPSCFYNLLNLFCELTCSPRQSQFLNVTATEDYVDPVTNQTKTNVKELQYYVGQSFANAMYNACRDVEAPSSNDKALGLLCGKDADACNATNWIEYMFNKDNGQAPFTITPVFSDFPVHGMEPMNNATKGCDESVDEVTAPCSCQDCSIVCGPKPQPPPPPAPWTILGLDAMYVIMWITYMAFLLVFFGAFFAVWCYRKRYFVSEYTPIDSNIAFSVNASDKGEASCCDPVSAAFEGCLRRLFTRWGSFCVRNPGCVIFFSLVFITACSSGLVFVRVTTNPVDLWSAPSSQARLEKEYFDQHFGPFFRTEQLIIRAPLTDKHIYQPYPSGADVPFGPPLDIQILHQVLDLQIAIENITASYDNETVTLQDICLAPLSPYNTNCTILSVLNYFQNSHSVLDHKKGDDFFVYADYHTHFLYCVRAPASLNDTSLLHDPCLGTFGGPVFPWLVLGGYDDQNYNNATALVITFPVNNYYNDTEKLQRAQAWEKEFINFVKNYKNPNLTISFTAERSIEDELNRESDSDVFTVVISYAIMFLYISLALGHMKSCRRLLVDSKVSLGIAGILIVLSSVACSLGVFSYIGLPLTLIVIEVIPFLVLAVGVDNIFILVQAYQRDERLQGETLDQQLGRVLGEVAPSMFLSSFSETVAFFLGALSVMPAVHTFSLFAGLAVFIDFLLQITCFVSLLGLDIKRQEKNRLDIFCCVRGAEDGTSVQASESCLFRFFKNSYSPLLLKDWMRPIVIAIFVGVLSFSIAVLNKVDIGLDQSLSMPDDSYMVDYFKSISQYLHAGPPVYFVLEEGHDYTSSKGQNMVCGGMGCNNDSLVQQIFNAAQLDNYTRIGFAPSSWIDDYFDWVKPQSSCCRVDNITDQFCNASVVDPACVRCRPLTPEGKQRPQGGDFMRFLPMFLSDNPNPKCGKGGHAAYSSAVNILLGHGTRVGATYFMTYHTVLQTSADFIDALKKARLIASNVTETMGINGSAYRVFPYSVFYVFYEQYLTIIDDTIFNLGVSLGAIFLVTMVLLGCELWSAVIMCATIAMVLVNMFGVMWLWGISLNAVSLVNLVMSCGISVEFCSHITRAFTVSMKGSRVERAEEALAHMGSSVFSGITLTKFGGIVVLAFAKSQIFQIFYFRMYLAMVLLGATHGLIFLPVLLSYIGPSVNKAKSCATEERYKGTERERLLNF
UniProt O75607: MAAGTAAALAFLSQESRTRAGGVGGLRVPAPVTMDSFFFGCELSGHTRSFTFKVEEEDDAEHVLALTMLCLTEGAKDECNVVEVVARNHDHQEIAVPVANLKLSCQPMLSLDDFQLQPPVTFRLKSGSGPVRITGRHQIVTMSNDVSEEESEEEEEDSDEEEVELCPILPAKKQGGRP
UniProt Q12968: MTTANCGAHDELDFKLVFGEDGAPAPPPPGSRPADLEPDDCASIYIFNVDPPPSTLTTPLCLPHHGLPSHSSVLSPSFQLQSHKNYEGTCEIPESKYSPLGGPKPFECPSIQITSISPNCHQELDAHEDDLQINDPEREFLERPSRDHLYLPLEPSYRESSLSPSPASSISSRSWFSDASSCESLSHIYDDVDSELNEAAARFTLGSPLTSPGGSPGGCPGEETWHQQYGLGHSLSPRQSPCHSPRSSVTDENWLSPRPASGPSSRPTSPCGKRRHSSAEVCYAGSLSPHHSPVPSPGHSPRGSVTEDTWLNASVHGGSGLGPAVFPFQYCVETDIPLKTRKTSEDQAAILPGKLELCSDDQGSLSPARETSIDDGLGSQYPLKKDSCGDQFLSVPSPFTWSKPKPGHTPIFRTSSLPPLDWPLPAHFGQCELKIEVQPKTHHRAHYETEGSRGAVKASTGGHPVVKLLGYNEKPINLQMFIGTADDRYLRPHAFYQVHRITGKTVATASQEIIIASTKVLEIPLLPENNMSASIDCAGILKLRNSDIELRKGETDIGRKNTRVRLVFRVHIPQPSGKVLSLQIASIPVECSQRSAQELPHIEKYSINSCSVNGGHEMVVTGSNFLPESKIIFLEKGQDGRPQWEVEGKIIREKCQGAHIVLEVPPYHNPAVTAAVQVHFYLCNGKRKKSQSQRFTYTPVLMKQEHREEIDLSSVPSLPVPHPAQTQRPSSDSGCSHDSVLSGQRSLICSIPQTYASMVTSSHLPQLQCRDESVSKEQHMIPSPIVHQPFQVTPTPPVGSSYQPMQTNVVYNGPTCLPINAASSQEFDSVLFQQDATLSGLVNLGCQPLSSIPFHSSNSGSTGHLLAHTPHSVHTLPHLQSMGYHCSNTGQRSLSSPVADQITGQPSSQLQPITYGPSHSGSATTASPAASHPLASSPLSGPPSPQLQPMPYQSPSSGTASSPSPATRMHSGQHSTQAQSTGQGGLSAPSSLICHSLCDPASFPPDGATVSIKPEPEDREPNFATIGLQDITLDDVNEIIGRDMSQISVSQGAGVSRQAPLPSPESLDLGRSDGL

Key:
Experiment in all cases: log2 fold change, soluble protein after heating vs DMSO (PISA); higher = thermal stabilisation; K562 cells, 10 uM, 30 min; active = over 0.2 and 3.5 SD of the protein, either way, in both replicates (recomputed)
[1] = compound: COC1=CC=C(C=C1)CN2C=CC3=C2C=C(C=C3)C(=O)NO
In short: (§1)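 Values are thermal stability changes relative to control samples and are taken from duplicates. They are stated as log2 fold changes. Before quantification by TMTpro 16plex LC-MS/MS with equalised channel sums, K562 cells at 2×10^6 cells/mL were treated with 10 μM compound for 30 min, heated in aliquots for 3 min across 48°C-58°C, pooled, extracted in PBS with 0.5% NP-40 at 4°C, and centrifuged at 21,000xg for 90 min to give the soluble supernatant.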

[2] = compound: CON(C)C(=O)N1N=C(c2cc(F)ccc2F)S[C@@]1(CCCN)c1ccccc1 [filanesib]
In short: as §1

[3] = compound: CO[C@H]1C[C@@H]2CC[C@@H](C)[C@@](O)(O2)C(=O)C(=O)N2CCCC[C@H]2C(=O)O[C@H]([C@H](C)C[C@@H]2CC[C@H](n3cnnn3)[C@H](OC)C2)CC(=O)[C@H](C)/C=C(\C)[C@@H](O)[C@@H](OC)C(=O)[C@H](C)C[C@H](C)/C=C/C=C/C=C/1C [zotarolimus]
In short: as §1

[4] = compound: COc1cc(C(=O)O)ccc1NC(=O)[C@@H]1N[C@@H](CC(C)(C)C)[C@](C#N)(c2ccc(Cl)cc2F)[C@H]1c1cccc(Cl)c1F [idasanutlin]
In short: as §1

[5] = compound: COc1cc(Nc2ncc3c(n2)-c2ccc(Cl)cc2C(c2c(F)cccc2OC)=NC3)ccc1C(=O)O [alisertib]
In short: as §1

[6] = compound: COc1cc2nc(-c3cc(F)ccc3O)nc(N[C@@H]3CNC[C@H]3C(C)(C)O)c2cc1OC
In short: as §1

[7] = compound: COc1cc2ncnc(Nc3ccc(F)c(Cl)c3)c2cc1OCCCN1CCOCC1 [gefitinib]
In short: as §1

[8] = compound: COc1cccc2cc(-c3nc([C@H]4CC[C@H](C(=O)O)CC4)n4ncnc(N)c34)[nH]c12
In short: as §1

[9] = compound: CS(=O)(=O)CCNCc1ccc(-c2ccc3ncnc(Nc4ccc(OCc5cccc(F)c5)c(Cl)c4)c3c2)o1 [lapatinib]
In short: as §1

[10] = compound: CS(=O)(=O)N1CCN(Cc2cc3nc(-c4cccc5[nH]ncc45)nc(N4CCOCC4)c3s2)CC1 [pictilisib]
In short: as §1

Measured: log2 fold change

NPC1L1 (UniProt Q9UHC9)
inactive: [1] -0.177 | [2] -0.099 | [3] -0.09 | [4] -0.041 | [5] -0.144 | [6] 0.079 | [7] 0.557 | [8] 0.106 | [9] -0.105

NFATC2 (UniProt Q13469)
inactive: [1] 0.015 | [2] 0.161 | [3] -0.084 | [4] 0.058 | [5] 0.147 | [6] -0.036 | [7] 0.031 | [8] -0.152 | [9] -0.001 | [10] -0.029

NIBAN1 (UniProt Q9BZQ8)
inactive: [1] 0.055 | [2] 0.028 | [3] 0.028 | [4] -0.007 | [5] -0.052 | [6] -0.043 | [7] -0.032 | [8] -0.062 | [9] -0.015 | [10] 0

NMI (UniProt Q13287)
inactive: [1] -0.016 | [2] -0.014 | [3] -0.018 | [4] -0.014 | [5] -0.03 | [6] 0.035 | [7] 0.008 | [8] 0.051 | [9] -0.022 | [10] 0.049

NME2P1 (UniProt O60361)
inactive: [1] -0.256 | [2] 0.058 | [3] -0.111 | [4] -0.367 | [5] -0.089 | [6] 0.122 | [7] -0.01 | [8] 0.084 | [9] -0.075 | [10] -0.041

NOSIP (UniProt Q9Y314)
inactive: [1] -0.069 | [2] 0.143 | [3] -0.018 | [4] 0.029 | [5] 0.166 | [6] 0.174 | [7] 0.156 | [8] -0.053 | [9] -0.046 | [10] -0.067

NEMP1 (UniProt O14524)
active: [6] -0.487
inactive: [1] -0.041 | [2] -0.247 | [3] -0.021 | [4] 0.034 | [5] -0.084 | [7] -0.021 | [8] 0.006 | [9] 0.001 | [10] -0.02

NEK3 (UniProt P51956)
inactive: [1] 0.058 | [2] -0.297 | [3] 0.217 | [4] 0.116 | [5] 0.074 | [6] 0.07 | [7] 0.086 | [8] -0.196 | [9] 0.061 | [10] 0.161

NIFK (UniProt Q9BYG3)
inactive: [1] -0.089 | [2] 0.28 | [3] 0.055 | [4] 0.08 | [5] -0.054 | [6] 0.062 | [7] -0.001 | [8] 0.1 | [9] -0.037 | [10] 0.155

NPL (UniProt Q9BXD5)
inactive: [1] -0.075 | [2] -0.009 | [3] 0 | [4] -0.02 | [5] -0.06 | [6] 0.011 | [7] 0.066 | [8] 0.049 | [9] 0.149 | [10] 0.034

NOC2L (UniProt Q9Y3T9)
inactive: [1] -0.053 | [2] 0.071 | [3] -0.009 | [4] 0.116 | [5] 0.022 | [6] 0.039 | [7] 0.031 | [8] -0.023 | [9] -0.185 | [10] 0.071

NSFL1C isoform 5 (UniProt Q9UNZ2)
inactive: [1] 0.113 | [2] -0.071 | [3] 0.027 | [4] 0.033 | [5] -0.036 | [6] -0.023 | [7] 0.001 | [8] 0 | [9] 0.01 | [10] 0.019

NRBP2 (UniProt Q9NSY0)
inactive: [1] -0.025

NLRC3 isoform 2 (UniProt Q7RTR2)
inactive: [1] -0.601 | [2] 0.059 | [3] -0.09 | [4] 0.148 | [5] 0.387 | [6] 0.414 | [7] 0.061 | [8] 0.344 | [9] -0.451

NOP53 (UniProt Q9NZM5)
inactive: [1] -0.111 | [2] 0.533 | [3] -0.008 | [4] 0.365 | [5] -0.1 | [6] 0.037 | [7] -0.127 | [8] -0.207 | [9] 0.163 | [10] -0.335

2 entries drawn at random from those above, as already listed:
NSFL1C isoform 5 (UniProt Q9UNZ2)
inactive: [1] 0.113 | [2] -0.071 | [3] 0.027 | [4] 0.033 | [5] -0.036 | [6] -0.023 | [7] 0.001 | [8] 0 | [9] 0.01 | [10] 0.019

NOP53 (UniProt Q9NZM5)
inactive: [1] -0.111 | [2] 0.533 | [3] -0.008 | [4] 0.365 | [5] -0.1 | [6] 0.037 | [7] -0.127 | [8] -0.207 | [9] 0.163 | [10] -0.335

(listing goes on)

NR2F6 (UniProt P10588)
inactive: [1] -0.371 | [2] -0.081 | [3] 0.066 | [4] -0.069 | [5] -0.196 | [6] -0.013 | [7] -0.205 | [8] -0.029 | [9] -0.133 | [10] 0.045

Quoted from the entries so far (2 entries):
NRBP2 (UniProt Q9NSY0)
inactive: [1] -0.025

NLRC3 isoform 2 (UniProt Q7RTR2)
inactive: [1] -0.601 | [2] 0.059 | [3] -0.09 | [4] 0.148 | [5] 0.387 | [6] 0.414 | [7] 0.061 | [8] 0.344 | [9] -0.451

Further records follow:

NFIC (UniProt P08651)
inactive: [1] -0.037 | [2] 0.093 | [3] -0.054 | [4] 0.032 | [5] -0.045 | [6] -0.038 | [7] -0.004 | [8] 0.008 | [9] 0.047 | [10] -0.029

NFKB1 isoform 2 (UniProt P19838)
inactive: [1] 0.08 | [2] 0.068 | [3] -0.056 | [4] 0.018 | [5] 0.075 | [6] 0.015 | [7] 0.027 | [8] -0.018 | [9] 0.138 | [10] 0.041

NONO (UniProt Q15233)
inactive: [1] -0.049 | [2] 0.293 | [3] 0.099 | [4] 0.306 | [5] -0.032 | [6] -0.179 | [7] 0.156 | [8] -0.113 | [9] 0.013 | [10] 0.176

NIPA1 (UniProt Q7RTP0)
inactive: [1] -0.143 | [2] -0.061 | [3] -0.045 | [4] -0.091 | [5] 0.034 | [6] 0.108 | [7] 0.101 | [8] 0.195 | [9] 0.048

NOL12 (UniProt Q9UGY1)
inactive: [1] -0.119 | [2] 0.595 | [3] -0.019 | [4] 0.182 | [5] -0.132 | [6] 0.08 | [7] -0.027 | [8] -0.149 | [9] 0.098 | [10] -0.004

NLN (UniProt Q9BYT8)
inactive: [1] 0.063 | [2] -0.075 | [3] 0.015 | [4] -0.036 | [5] -0.061 | [6] -0.01 | [7] -0.002 | [8] 0.032 | [9] -0.032 | [10] 0.009

NIPSNAP3B (UniProt Q9BS92)
inactive: [1] -0.033 | [2] -0.168 | [3] 0.013 | [4] 0.046 | [5] -0.046 | [6] -0.071 | [7] -0.138 | [8] 0.009 | [9] -0.09 | [10] 0.002

NMNAT1 (UniProt Q9HAN9)
inactive: [1] -0.168 | [2] 0.354 | [3] -0.023 | [4] 0.154 | [5] -0.115 | [6] 0.132 | [7] -0.022 | [8] -0.102 | [9] 0.018 | [10] -0.014

NPC1 (UniProt O15118)
inactive: [1] 0.04 | [2] -0.12 | [3] -0.038 | [4] 0.025 | [5] -0.067 | [6] 0.035 | [7] -0.027 | [8] 0.057 | [9] 0.026 | [10] 0

NMT1 (UniProt P30419)
inactive: [1] -0.023 | [2] -0.005 | [3] 0.042 | [4] -0.015 | [5] -0.056 | [6] -0.009 | [7] -0.044 | [8] 0.018 | [9] 0.03 | [10] 0.029

NELFA (UniProt Q9H3P2)
inactive: [1] 0.031 | [2] 0.035 | [3] -0.084 | [4] -0.117 | [5] 0.092 | [6] 0.105 | [7] 0.36 | [8] 0.017 | [9] -0.079 | [10] 0.076

NPM3 (UniProt O75607)
inactive: [1] 0.123 | [2] 0.116 | [3] 0.104 | [4] 0.258 | [5] -0.205 | [6] 0.006 | [7] -0.011 | [8] -0.069 | [9] -0.003 | [10] -0.025

NHLRC3 (UniProt Q5JS37)
inactive: [1] 0.073 | [2] -0.019 | [3] 0.027 | [4] -0.039 | [5] 0.177 | [6] 0.101 | [7] 0.108 | [8] 0.148 | [9] -0.025 | [10] 0.037

NFATC3 (UniProt Q12968)
inactive: [1] 0.039 | [2] 0.056 | [3] -0.109 | [4] -0.009 | [5] 0.006 | [6] -0.109 | [7] 0.048 | [8] -0.002 | [9] 0.015 | [10] 0.086

NFXL1 (UniProt Q6ZNB6)
inactive: [1] 0.052 | [2] 0.075 | [3] 0.015 | [4] 0.002 | [5] -0.006 | [6] 0.092 | [7] -0.031 | [8] -0.017 | [9] -0.034 | [10] 0.002
